US20070259817A1
No constants are given. Whether binding was seen depends on the method and setting. Some binding calls cover weakened binding; strength is not graded here.

The chains behind the UniProt entries cited, without tags or fusion partners. Where a name states a change or a piece, a line headed by the entry shows the natural chain unless it says otherwise.
UniProt P02462: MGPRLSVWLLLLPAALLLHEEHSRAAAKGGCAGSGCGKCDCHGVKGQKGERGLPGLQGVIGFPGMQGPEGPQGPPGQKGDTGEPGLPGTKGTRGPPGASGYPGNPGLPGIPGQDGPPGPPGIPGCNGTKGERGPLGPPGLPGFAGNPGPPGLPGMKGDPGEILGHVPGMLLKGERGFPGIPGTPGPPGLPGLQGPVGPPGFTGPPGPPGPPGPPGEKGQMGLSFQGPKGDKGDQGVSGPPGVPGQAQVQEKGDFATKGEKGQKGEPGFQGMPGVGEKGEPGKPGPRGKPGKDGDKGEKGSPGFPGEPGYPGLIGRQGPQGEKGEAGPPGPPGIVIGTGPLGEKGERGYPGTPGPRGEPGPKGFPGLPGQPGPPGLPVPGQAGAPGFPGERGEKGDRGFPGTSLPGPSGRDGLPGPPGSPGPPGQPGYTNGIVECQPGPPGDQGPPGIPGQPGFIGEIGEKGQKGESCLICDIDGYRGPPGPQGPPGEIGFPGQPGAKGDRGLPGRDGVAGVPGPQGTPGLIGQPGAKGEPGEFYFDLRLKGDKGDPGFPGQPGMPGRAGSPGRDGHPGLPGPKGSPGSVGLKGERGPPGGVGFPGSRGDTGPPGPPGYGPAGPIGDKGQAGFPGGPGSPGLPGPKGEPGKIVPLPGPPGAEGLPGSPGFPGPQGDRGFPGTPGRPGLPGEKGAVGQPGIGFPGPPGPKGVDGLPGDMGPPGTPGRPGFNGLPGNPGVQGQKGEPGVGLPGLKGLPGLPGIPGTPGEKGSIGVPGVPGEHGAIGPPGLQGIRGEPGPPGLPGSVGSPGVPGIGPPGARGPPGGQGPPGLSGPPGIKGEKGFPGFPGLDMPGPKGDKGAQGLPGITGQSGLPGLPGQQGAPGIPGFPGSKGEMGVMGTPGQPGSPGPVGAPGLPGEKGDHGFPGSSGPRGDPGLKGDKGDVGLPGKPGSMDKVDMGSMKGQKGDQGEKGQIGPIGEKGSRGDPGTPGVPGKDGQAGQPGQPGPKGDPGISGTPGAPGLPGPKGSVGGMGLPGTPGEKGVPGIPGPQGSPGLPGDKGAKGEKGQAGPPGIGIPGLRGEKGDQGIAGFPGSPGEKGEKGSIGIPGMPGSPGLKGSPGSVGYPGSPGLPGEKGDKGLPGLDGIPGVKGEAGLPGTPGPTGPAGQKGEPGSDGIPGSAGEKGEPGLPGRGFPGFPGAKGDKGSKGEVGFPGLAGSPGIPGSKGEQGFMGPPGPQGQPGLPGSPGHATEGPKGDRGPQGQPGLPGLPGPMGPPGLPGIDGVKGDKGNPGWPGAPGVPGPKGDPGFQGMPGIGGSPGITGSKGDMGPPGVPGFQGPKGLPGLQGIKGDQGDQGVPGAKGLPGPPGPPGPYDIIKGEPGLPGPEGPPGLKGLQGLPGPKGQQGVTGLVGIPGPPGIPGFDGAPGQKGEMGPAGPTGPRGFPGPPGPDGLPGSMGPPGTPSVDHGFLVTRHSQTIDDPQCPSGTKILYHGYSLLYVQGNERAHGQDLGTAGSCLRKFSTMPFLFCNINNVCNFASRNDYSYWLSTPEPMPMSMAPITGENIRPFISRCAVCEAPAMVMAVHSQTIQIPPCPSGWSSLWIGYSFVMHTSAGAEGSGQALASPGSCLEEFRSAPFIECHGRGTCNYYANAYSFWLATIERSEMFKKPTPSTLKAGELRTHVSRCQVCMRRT
UniProt P08572: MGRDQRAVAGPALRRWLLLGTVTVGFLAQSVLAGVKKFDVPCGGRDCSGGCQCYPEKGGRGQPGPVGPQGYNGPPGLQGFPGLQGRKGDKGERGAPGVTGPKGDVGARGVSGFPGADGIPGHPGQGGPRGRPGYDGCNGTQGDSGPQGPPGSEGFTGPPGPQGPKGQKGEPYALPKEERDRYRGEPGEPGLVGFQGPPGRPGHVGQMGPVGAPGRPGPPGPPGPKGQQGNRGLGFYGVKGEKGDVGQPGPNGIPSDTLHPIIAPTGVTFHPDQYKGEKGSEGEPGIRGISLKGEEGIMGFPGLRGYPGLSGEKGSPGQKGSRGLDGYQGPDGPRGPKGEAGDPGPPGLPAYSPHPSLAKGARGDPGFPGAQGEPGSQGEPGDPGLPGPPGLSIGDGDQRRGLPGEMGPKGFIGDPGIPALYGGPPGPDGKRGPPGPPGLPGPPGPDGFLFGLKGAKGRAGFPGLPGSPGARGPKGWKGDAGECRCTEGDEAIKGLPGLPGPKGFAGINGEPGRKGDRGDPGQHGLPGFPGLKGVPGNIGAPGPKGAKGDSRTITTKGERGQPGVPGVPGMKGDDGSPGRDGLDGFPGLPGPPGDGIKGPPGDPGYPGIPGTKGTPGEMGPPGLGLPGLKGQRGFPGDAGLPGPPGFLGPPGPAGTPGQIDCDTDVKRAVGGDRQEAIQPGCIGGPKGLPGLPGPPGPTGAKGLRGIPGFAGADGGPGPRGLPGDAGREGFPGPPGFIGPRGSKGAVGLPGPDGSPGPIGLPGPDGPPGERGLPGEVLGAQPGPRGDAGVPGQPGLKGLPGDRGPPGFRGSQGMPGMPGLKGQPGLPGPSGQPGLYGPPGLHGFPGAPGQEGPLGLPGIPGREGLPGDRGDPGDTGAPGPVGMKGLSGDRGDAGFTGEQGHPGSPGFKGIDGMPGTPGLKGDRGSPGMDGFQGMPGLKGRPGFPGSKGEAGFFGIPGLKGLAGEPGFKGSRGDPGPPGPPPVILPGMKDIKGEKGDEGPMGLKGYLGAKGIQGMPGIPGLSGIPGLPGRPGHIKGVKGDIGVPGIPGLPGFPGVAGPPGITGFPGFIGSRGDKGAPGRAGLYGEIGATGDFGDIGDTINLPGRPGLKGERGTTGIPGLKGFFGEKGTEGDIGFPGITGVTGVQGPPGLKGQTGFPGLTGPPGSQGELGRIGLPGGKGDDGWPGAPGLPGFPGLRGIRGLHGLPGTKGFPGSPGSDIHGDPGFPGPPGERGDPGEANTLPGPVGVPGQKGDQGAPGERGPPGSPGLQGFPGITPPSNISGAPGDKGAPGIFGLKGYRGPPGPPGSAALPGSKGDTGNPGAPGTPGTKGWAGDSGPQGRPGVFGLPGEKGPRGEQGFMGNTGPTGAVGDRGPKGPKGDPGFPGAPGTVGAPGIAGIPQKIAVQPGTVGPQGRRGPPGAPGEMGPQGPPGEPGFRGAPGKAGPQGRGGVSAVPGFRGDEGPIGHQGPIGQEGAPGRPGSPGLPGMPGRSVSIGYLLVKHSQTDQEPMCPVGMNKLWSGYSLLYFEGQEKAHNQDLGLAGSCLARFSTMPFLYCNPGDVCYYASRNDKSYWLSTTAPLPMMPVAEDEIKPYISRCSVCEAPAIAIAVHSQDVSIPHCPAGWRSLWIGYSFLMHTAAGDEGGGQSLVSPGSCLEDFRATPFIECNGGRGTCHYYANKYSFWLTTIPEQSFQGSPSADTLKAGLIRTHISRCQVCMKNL

Tests used:
[1] = target: T1, denatured collagen type-IV (human) (UniProt P02462+P08572); experiment: solid phase ELISA, HRP-labeled CLK-peptide on coated plates; FIG. 15
[2] = target: T1, denatured collagen type-IV (human); experiment: gamma counting of wells coated with denatured collagen type-IV (10 ug/ml); FIG. 19 legend
[3] = target: T1, denatured collagen type-IV (human); experiment: gamma counting of wells coated with denatured collagen type-IV (10 ug/ml); FIG. 19

Row | Binder | binding [1] | binding [2] | binding [3]
1 | CLKQNGGNFSLG (HRP label (site of attachment not stated)) [HRP-labeled CLK-Peptide] | binds | – | –
2 | CLKQNGGNFSLG (99Tc label (site and chelation not stated)) [99Tc-CLK-Peptide] | – | binds | binds
